Results are given in words; binding and its absence hold for the method and conditions named. In cells and extracts the contact can be indirect. These calls come from enrichment with a bait or labelling near it, and not all partners need be listed. For some assays here: A no says only that the protein was not detected with the bait.
T1: MAS C-terminal tail (Ct) peptide, residues 301 to 325 of human MAS receptor, N-terminal biotin, C316S (human)
T1 sequence (peptide, biotin on the N-terminus): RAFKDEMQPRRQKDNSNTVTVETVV

Protein sequences, listed by entry. Tags and fused reporters are not part of them. Residues count along the entry.
UniProt O00560: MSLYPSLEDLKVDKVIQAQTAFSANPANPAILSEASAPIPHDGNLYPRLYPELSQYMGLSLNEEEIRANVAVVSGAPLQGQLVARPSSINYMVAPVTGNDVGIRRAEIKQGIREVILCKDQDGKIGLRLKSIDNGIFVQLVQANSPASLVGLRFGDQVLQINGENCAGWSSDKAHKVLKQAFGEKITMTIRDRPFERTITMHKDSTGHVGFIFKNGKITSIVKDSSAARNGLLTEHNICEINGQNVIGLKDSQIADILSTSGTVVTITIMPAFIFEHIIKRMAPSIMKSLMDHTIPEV
UniProt Q8NI35: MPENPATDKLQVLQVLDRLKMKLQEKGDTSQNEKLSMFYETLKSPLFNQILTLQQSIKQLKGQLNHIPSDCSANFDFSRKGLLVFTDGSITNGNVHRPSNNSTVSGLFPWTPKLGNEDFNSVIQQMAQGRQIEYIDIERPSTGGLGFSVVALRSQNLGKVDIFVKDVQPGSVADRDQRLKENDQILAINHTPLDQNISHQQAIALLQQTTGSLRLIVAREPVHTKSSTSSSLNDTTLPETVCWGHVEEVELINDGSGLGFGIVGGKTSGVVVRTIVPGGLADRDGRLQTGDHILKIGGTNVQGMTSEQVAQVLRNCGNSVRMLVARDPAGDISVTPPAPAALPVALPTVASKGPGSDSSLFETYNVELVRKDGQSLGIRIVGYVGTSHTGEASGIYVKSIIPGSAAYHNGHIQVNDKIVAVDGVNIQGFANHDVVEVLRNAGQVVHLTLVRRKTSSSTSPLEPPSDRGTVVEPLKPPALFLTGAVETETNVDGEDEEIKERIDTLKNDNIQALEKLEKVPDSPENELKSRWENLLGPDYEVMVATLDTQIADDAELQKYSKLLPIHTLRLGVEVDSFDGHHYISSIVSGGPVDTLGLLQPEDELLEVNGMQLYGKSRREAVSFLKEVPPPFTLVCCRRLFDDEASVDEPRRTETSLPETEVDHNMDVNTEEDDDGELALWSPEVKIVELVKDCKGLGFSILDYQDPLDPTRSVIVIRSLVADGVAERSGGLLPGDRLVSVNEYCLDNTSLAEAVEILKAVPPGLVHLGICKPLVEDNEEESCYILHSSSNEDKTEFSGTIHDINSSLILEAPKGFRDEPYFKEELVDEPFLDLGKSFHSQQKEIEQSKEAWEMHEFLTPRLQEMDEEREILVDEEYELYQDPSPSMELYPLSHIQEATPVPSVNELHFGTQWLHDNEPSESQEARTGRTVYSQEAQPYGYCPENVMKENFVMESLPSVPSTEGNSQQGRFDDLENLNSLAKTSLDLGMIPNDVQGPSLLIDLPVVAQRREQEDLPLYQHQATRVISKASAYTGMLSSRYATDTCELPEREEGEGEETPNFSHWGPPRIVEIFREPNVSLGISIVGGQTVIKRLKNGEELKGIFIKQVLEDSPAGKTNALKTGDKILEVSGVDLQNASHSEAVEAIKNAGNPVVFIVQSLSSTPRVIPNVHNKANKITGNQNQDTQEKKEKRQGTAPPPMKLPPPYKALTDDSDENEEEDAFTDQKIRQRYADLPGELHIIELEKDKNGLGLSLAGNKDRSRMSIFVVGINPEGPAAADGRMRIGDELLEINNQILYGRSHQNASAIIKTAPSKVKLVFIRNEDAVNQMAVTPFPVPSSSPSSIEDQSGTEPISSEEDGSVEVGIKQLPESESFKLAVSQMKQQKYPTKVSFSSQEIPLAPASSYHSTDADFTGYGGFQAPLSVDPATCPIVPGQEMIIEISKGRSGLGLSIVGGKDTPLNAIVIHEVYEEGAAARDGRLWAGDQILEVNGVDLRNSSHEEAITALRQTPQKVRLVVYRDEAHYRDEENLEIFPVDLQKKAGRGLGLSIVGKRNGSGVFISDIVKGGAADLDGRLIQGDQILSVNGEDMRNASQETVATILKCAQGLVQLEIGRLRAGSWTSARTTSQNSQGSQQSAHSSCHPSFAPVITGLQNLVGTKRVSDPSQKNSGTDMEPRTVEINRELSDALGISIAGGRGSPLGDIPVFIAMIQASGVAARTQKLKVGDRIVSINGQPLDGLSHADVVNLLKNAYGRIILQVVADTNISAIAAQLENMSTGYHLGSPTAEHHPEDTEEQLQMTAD
UniProt Q12923: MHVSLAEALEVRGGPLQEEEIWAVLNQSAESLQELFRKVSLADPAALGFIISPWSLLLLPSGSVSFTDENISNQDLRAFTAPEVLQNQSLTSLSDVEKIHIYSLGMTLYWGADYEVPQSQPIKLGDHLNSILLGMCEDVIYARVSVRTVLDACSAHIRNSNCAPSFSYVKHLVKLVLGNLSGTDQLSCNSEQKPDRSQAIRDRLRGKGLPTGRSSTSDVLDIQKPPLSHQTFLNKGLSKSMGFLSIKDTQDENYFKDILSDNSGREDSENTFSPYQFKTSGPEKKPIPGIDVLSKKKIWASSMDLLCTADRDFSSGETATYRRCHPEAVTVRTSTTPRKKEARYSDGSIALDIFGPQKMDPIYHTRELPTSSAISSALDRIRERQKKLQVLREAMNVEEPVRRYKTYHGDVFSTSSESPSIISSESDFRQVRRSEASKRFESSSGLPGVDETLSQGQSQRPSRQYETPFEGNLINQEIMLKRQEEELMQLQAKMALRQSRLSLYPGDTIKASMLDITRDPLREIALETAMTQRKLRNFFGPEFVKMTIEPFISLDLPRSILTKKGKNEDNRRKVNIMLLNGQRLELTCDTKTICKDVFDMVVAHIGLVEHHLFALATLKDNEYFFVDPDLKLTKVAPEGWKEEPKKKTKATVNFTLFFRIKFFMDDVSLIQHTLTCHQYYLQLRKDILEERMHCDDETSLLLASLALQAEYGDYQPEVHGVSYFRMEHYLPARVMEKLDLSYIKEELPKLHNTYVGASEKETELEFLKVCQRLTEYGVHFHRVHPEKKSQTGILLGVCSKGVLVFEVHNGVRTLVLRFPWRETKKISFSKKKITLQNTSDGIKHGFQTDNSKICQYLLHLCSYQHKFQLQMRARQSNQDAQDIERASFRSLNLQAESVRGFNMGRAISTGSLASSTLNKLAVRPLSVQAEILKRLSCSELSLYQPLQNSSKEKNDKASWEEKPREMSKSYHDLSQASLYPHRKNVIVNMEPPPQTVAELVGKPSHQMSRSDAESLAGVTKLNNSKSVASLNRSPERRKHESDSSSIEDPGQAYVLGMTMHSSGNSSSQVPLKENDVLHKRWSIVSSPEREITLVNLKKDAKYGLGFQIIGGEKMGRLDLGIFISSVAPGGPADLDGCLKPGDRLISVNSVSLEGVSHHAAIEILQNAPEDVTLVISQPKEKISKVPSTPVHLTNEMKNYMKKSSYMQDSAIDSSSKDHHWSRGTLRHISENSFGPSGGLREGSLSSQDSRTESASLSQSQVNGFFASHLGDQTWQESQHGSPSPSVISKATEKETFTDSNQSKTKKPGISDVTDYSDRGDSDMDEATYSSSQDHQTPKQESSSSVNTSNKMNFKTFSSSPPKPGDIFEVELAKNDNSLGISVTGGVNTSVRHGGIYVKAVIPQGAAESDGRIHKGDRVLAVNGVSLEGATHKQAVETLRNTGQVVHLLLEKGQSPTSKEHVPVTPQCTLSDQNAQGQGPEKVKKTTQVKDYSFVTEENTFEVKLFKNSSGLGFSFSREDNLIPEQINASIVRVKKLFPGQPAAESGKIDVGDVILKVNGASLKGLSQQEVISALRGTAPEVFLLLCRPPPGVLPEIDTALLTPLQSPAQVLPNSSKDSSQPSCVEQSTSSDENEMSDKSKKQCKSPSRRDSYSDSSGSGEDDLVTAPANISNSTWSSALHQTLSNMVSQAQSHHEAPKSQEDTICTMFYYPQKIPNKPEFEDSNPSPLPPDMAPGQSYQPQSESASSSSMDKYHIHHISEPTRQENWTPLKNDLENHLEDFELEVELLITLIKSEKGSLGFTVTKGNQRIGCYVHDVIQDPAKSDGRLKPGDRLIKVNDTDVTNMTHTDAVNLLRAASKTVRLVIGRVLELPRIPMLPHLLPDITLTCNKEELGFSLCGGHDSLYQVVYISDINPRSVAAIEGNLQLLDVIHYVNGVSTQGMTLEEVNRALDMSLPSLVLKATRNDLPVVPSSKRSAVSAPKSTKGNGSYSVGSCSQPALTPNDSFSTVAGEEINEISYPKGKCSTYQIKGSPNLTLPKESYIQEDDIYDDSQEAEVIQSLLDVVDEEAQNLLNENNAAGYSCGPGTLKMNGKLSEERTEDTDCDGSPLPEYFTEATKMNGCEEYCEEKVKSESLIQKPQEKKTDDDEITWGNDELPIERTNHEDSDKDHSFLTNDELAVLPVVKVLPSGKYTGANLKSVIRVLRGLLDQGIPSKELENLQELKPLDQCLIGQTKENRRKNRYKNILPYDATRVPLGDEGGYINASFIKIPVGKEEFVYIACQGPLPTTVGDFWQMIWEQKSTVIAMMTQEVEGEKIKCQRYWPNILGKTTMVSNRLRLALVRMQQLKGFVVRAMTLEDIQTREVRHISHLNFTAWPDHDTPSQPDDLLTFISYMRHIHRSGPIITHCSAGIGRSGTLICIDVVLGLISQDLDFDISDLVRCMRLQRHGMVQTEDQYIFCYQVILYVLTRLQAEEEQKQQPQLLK
UniProt Q92743, residues 23-480: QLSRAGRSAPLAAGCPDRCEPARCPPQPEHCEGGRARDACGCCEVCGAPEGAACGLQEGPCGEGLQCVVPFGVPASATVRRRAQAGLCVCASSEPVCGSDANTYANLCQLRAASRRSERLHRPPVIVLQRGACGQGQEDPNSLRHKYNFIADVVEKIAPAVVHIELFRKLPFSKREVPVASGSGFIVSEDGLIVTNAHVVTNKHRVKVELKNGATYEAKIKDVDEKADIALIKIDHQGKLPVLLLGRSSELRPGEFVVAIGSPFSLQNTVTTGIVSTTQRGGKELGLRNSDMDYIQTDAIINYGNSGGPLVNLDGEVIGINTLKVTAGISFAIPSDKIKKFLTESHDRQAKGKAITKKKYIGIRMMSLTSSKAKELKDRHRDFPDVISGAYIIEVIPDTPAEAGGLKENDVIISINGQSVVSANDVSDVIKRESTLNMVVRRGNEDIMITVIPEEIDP
UniProt P05387: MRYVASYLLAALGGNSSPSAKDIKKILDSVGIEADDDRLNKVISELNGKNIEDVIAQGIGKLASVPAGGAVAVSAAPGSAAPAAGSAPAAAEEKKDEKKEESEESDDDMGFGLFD
UniProt Q15021: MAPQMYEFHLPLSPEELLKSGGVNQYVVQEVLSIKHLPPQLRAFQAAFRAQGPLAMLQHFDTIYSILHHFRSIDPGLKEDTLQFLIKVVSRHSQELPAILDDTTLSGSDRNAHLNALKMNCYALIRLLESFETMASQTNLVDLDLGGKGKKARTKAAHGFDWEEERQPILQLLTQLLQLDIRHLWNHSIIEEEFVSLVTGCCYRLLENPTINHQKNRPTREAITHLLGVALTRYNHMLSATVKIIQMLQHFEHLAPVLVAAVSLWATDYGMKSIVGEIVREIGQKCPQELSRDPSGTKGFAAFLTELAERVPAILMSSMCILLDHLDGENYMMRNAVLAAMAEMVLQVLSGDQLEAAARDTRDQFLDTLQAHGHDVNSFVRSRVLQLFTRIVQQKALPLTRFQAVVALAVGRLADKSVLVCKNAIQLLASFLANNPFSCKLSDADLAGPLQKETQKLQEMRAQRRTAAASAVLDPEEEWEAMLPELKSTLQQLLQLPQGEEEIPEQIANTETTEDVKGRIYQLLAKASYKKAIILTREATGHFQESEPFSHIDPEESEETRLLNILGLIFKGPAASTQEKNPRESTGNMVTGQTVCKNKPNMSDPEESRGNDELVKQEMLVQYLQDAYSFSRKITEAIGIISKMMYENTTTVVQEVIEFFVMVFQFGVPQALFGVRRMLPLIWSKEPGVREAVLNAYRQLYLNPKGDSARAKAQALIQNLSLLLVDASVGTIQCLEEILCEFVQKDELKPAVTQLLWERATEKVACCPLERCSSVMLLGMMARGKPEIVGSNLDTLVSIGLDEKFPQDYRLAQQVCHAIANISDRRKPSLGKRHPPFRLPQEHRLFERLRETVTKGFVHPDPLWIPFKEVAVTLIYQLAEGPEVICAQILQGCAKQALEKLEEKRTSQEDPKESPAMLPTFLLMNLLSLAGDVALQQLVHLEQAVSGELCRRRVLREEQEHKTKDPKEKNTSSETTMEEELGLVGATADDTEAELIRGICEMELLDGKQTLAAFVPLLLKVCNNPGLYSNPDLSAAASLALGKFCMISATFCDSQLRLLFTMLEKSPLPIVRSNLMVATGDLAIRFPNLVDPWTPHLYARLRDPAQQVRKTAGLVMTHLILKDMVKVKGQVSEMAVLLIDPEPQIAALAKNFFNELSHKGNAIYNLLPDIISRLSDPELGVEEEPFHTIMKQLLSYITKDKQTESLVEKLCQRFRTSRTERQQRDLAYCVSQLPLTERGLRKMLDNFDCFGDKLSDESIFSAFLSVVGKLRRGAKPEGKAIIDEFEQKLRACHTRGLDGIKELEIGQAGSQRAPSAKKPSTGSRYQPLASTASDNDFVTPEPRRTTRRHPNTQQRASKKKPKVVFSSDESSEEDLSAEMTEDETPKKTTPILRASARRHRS


Target: T1, MAS C-terminal tail (Ct) peptide, residues 301 to 325 of human MAS receptor, N-terminal biotin, C316S (human)
Assay: affinity purification with mass spectrometry; as a1 and a2; the lysate in which this PDZ hit was found (HEK293, HL-1 or both) is told only in Fig 2B; only the target purified

Molecule	binding
SDCB1 (from UniProt O00560 1-298)	binds
INADL (from UniProt Q8NI35 1-1801)	binds
MPP5 (from UniProt Q8N3R9 1-675)	binds
SCRIB (from UniProt Q14160 1-1655)	binds
PTN13 (from UniProt Q12923 1-2485)	binds
HTRA1 (from UniProt Q92743 23-480)	binds

Target: T1, MAS C-terminal tail (Ct) peptide, residues 301 to 325 of human MAS receptor, N-terminal biotin, C316S (human)
Assay: affinity purification with mass spectrometry; biotinylated MAS Ct peptide immobilised on NeutrAvidin agarose resin; HEK293 cell lysate (~4 mg), overnight at 4°C; washes with D-PBS; elution with 2% SDS; LC-MS of whole gel lanes; resin alone as control; only the target purified

Molecule	binding
DMD (human) (from UniProt P11532 1-3685)	binds
DDX21 (from UniProt Q9NR30 1-783)	binds
UTRO (human) (from UniProt P46939 1-3433)	binds
SNTB2 (human) (from UniProt Q13425 1-540)	binds
RLA2 (from UniProt P05387 1-115)	binds
NEB2 (from UniProt Q96SB3 1-817)	no binding
NEB1 (from UniProt Q9ULJ8 1-1098)	no binding
TJP1 (from UniProt Q07157 1-1748)	binds
CND1 (from UniProt Q15021 1-1401)	binds
TJP2 (from UniProt Q9UDY2 1-1190)	binds
SNTB1 (human) (protein, UniProt Q13884 1-538) MAVAAAAAAAGPAGAGGGRAQRSGLLEVLVRDRWHKVLVNLSEDALVLSSEEGAAAYNGIGTATNGSFCRGAGAGHPGAGGAQPPDSPAGVRTAFTDLPEQVPESISNQKRGVKVLKQELGGLGISIKGGKENKMPILISKIFKGLAADQTQALYVGDAILSVNGADLRDATHDEAVQALKRAGKEVLLEVKYMREATPYVKKGSPVSEIGWETPPPESPRLGGSTSDPPSSQSFSFHRDRKSIPLKMCYVTRSMALADPENRQLEIHSPDAKHTVILRSKDSATAQAWFSAIHSNVNDLLTRVIAEVREQLGKTGIAGSREIRHLGWLAEKVPGESKKQWKPALVVLTEKDLLIYDSMPRRKEAWFSPVHTYPLLATRLVHSGPGKGSPQAGVDLSFATRTGTRQGIETHLFRAETSRDLSHWTRSIVQGCHNSAELIAEISTACTYKNQECRLTIHYENGFSITTEPQEGAFPKTIIQSPYEKLKMSSDDGIRMLYLDFGGKDGEIQLDLHSCPKPIVFIIHSFLSAKITRLGLVA	binds
MPP7 (protein, UniProt Q5T2T1 1-576) MPALSTGSGSDTGLYELLAALPAQLQPHVDSQEDLTFLWDMFGEKSLHSLVKIHEKLHYYEKQSPVPILHGAAALADDLAEELQNKPLNSEIRELLKLLSKPNVKALLSVHDTVAQKNYDPVLPPMPEDIDDEEDSVKIIRLVKNREPLGATIKKDEQTGAIIVARIMRGGAADRSGLIHVGDELREVNGIPVEDKRPEEIIQILAQSQGAITFKIIPGSKEETPSKEGKMFIKALFDYNPNEDKAIPCKEAGLSFKKGDILQIMSQDDATWWQAKHEADANPRAGLIPSKHFQERRLALRRPEILVQPLKVSNRKSSGFRKSFRLSRKDKKTNKSMYECKKSDQYDTADVPTYEEVTPYRRQTNEKYRLVVLVGPVGVGLNELKRKLLISDTQHYGVTVPHTTRARRSQESDGVEYIFISKHLFETDVQNNKFIEYGEYKNNYYGTSIDSVRSVLAKNKVCLLDVQPHTVKHLRTLEFKPYVIFIKPPSIERLRETRKNAKIISSRDDQGAAKPFTEEDFQEMIKSAQIMESQYGHLFDKIIINDDLTVAFNELKTTFDKLETETHWVPVSWLHS	binds
CPVL (protein, UniProt Q9H3G5 23-476) LFRSLYRSVSMPPKGDSGQPLFLTPYIEAGKIQKGRELSLVGPFPGLNMKSYAGFLTVNKTYNSNLFFWFFPAQIQPEDAPVVLWLQGGPGGSSMFGLFVEHGPYVVTSNMTLRDRDFPWTTTLSMLYIDNPVGTGFSFTDDTHGYAVNEDDVARDLYSALIQFFQIFPEYKNNDFYVTGESYAGKYVPAIAHLIHSLNPVREVKINLNGIAIGDGYSDPESIIGGYAEFLYQIGLLDEKQKKYFQKQCHECIEHIRKQNWFEAFEILDKLLDGDLTSDPSYFQNVTGCSNYYNFLRCTEPEDQLYYVKFLSLPEVRQAIHVGNQTFNDGTIVEKYLREDTVQSVKPWLTEIMNNYKVLIYNGQLDIIVAAALTERSLMGMDWKGSQEYKKAEKKVWKIFKSDSEVAGYIRQAGDFHQVIIRGGGHILPYDQPLRAFDMINRFIYGKGWDPYVG	binds
CTNL1 (protein, UniProt Q9UBT7 1-734) MAASPGPAGVGGAGAVYGSGSSGFALDSGLEIKTRSVEQTLLPLVSQITTLINHKDNTKKSDKTLQAIQRVGQAVNLAVGRFVKVGEAIANENWDLKEEINIACIEAKQAGETIAALTDITNLNHLESDGQITIFTDKTGVIKAARLLLSSVTKVLLLADRVVIKQIITSRNKVLATMERLEKVNSFQEFVQIFSQFGNEMVEFAHLSGDRQNDLKDEKKKAKMAAARAVLEKCTMMLLTASKTCLRHPNCESAHKNKEGVFDRMKVALDKVIEIVTDCKPNGETDISSISIFTGIKEFKMNIEALRENLYFQSKENLSVTLEVILERMEDFTDSAYTSHEHRERILELSTQARMELQQLISVWIQAQSKKTKSIAEELELSILKISHSLNELKKELHSTATQLAADLLKYHADHVVLKALKLTGVEGNLEALAEYACKLSEQKEQLVETCRLLRHISGTEPLEITCIHAEETFQVTGQQIISAAETLTLHPSSKIAKENLDVFCEAWESQISDMSTLLREINDVFEGRRGEKYGYLSLPKPMKNNANLKSLKPDKPDSEEQAKIAKLGLKLGLLTSDADCEIEKWEDQENEIVQYGRNMSSMAYSLYLFTRGEGPLKTSQDLIHQLEVFAAEGLKLTSSVQAFSKQLKDDDKLMLLLEINKLIPLCHQLQTVTKTSLQNKVFLKVDKCITKTRSMMALLVQLLSLCYKLLKKLQMENNGWVSVTNKDTMDSKT	binds
DTNA (human) (protein, UniProt Q9Y4J8 1-743) MIEDSGKRGNTMAERRQLFAEMRAQDLDRIRLSTYRTACKLRFVQKKCNLHLVDIWNVIEALRENALNNLDPNTELNVSRLEAVLSTIFYQLNKRMPTTHQIHVEQSISLLLNFLLAAFDPEGHGKISVFAVKMALATLCGGKIMDKLRYIFSMISDSSGVMVYGRYDQFLREVLKLPTAVFEGPSFGYTEQSARSCFSQQKKVTLNGFLDTLMSDPPPQCLVWLPLLHRLANVENVFHPVECSYCHSESMMGFRYRCQQCHNYQLCQDCFWRGHAGGSHSNQHQMKEYTSWKSPAKKLTNALSKSLSCASSREPLHPMFPDQPEKPLNLAHIVDTWPPRPVTSMNDTLFSHSVPSSGSPFITRSSPPKDSEVEQNKLLARAAPAFLKGKGIQYSLNVADRLADEHVLIGLYVNMLRNNPSCMLESSNRLDEEHRLIARYAARLAAESSSSQPPQQRSAPDISFTIDANKQQRQLIAELENKNREILQEIQRLRLEHEQASQPTPEKAQQNPTLLAELRLLRQRKDELEQRMSALQESRRELMVQLEGLMKLLKTQGAGSPRSSPSHTISRPIPMPIRSASACSTPTHTPQDSLTGVGGDVQEAFAQSSRRNLRNDLLVAADSITNTMSSLVKELNSEVGSETESNVDSEFARTQFEDLVPSPTSEKAFLAQIHARKPGYIHSGATTSTMRGDMVTEDADPYVQPEDENYENDSVRQLENELQMEEYLKQKLQDEAYQVSLQG	binds
DTNB (human) (protein, UniProt O60941 1-627) MIEESGNKRKTMAEKRQLFIEMRAQNFDVIRLSTYRTACKLRFVQKRCNLHLVDIWNMIEAFRDNGLNTLDHTTEISVSRLETVISSIYYQLNKRLPSTHQISVEQSISLLLNFMIAAYDSEGRGKLTVFSVKAMLATMCGGKMLDKLRYVFSQMSDSNGLMIFSKFDQFLKEVLKLPTAVFEGPSFGYTEHSVRTCFPQQRKIMLNMFLDTMMADPPPQCLVWLPLMHRLAHVENVFHPVECSYCRCESMMGFRYRCQQCHNYQLCQNCFWRGHAGGPHSNQHQMKEHSSWKSPAKKLSHAISKSLGCVPTREPPHPVFPEQPEKPLDLAHIVPPRPLTNMNDTMVSHMSSGVPTPTKRLQYSQDIPSHLADEHALIASYVARLQHCARVLDSPSRLDEEHRLIARYAARLAAEAGNVTRPPTDLSFNFDANKQQRQLIAELENKNREILQEIQRLRLEHEQASQPTPEKAQQNPTLLAELRLLRQRKDELEQRMSALQESRRELMVQLEELMKLLKEEEQKQAAQATGSPHTSPTHGGGRPMPMPVRSTSAGSTPTHCPQDSLSGVGGDVQEAFAQGTRRNLRNDLLVAADSITNTMSSLVKELHSAEEGAEEEEEKMQNGKDRG	binds
PDZD8 (protein, UniProt Q8NEN9 1-1154) MGLLLMILASAVLGSFLTLLAQFFLLYRRQPEPPADEAARAGEGFRYIKPVPGLLLREYLYGGGRDEEPSGAAPEGGATPTAAPETPAPPTRETCYFLNATILFLFRELRDTALTRRWVTKKIKVEFEELLQTKTAGRLLEGLSLRDVFLGETVPFIKTIRLVRPVVPSATGEPDGPEGEALPAACPEELAFEAEVEYNGGFHLAIDVDLVFGKSAYLFVKLSRVVGRLRLVFTRVPFTHWFFSFVEDPLIDFEVRSQFEGRPMPQLTSIIVNQLKKIIKRKHTLPNYKIRFKPFFPYQTLQGFEEDEEHIHIQQWALTEGRLKVTLLECSRLLIFGSYDREANVHCTLELSSSVWEEKQRSSIKTVELIKGNLQSVGLTLRLVQSTDGYAGHVIIETVAPNSPAAIADLQRGDRLIAIGGVKITSTLQVLKLIKQAGDRVLVYYERPVGQSNQGAVLQDNFGQLEENFLSSSCQSGYEEEAAGLTVDTESRELDSEFEDLASDVRAQNEFKDEAQSLSHSPKRVPTTLSIKPLGAISPVLNRKLAVGSHPLPPKIQSKDGNKPPPLKTSEITDPAQVSKPTQGSAFKPPVPPRPQAKVPLPSADAPNQAEPDVLVEKPEKVVPPPLVDKSAEKQAKNVDAIDDAAAPKQFLAKQEVAKDVTSETSCPTKDSSDDRQTWESSEILYRNKLGKWTRTRASCLFDIEACHRYLNIALWCRDPFKLGGLICLGHVSLKLEDVALGCLATSNTEYLSKLRLEAPSPKAIVTRTALRNLSMQKGFNDKFCYGDITIHFKYLKEGESDHHVVTNVEKEKEPHLVEEVSVLPKEEQFVGQMGLTENKHSFQDTQFQNPTWCDYCKKKVWTKAASQCMFCAYVCHKKCQEKCLAETSVCGATDRRIDRTLKNLRLEGQETLLGLPPRVDAEASKSVNKTTGLTRHIINTSSRLLNLRQVSKTRLSEPGTDLVEPSPKHTPNTSDNEGSDTEVCGPNSPSKRGNSTGIKLVRKEGGLDDSVFIAVKEIGRDLYRGLPTEERIQKLEFMLDKLQNEIDQELEHNNSLVREEKETTDTRKKSLLSAALAKSGERLQALTLLMIHYRAGIEDIETLESLSLDQHSKKISKYTDDTEEDLDNEISQLIDSQPFSSISDDLFGPSESV	no binding

— PMC4618059
